Experimental data from paper PMC7819943, “Rice protein-binding microarrays: a tool to detect cis-acting elements near promoter regions in rice”.
Some of the results follow.

The chains behind the UniProt entries cited, without tags or fusion partners.
UniProt Q0JBA9, entry or part of it: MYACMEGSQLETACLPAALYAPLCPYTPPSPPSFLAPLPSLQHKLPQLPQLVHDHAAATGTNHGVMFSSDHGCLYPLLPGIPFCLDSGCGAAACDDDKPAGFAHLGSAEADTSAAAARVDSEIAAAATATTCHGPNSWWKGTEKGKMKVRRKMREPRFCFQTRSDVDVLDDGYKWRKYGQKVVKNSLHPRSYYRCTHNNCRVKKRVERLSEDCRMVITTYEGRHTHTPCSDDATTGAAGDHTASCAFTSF

These sequences were tested against OsWRKY34 (Oryza sativa, UniProt Q0JBA9 1-250) (assay: protein-binding microarray (RPBM); PBS, 2% BSA, 51.3 ng/ul salmon testes DNA, 50 uM zinc acetate, 200 nM TF, 25 C, 1 h; high values mean tight binding). Settings: protein: recombinant; tags: N-terminal polyhistidine and DsRed monomer fusion (pET32a); label: CyDye5-dUTP incorporated in the synthesized complementary strand; 3' TTTTT single-stranded linker to array surface; dsDNA, one strand shown.
In short: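 A custom Agilent array was converted to double-stranded form by primer extension with Cy5-dUTP and blocked with 2% BSA. Protein at 200 nM in PBS with 2% BSA, salmon testes DNA and 50 µM zinc acetate was applied for 1 h at 25 °C, followed by washing. The proteins were polyhistidine–DsRed N-terminal fusions of transcription factors, expressed in E. coli BL21-CodonPlus and Ni–NTA-purified. The binding signal is per-feature fluorescence intensity (arbitrary units) from an Axon 4000B scanner.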
For “CATACGAAGCATCCTTTTGGTTTCAATAAACATATTATGTCGGAGTCACCTAGTGCAG”, the binding signal was 8270 fluorescence intensity (a.u.).
With “TACCAATTTTCTCCGTGTTTTGGAATTTTTTTCGGCTCCTCGGAGTCACCTAGTGCAG” the binding signal was 8050 fluorescence intensity (a.u.).
“GCACTACTACTACACTCATACTCTCTTCTCTCTCCTGTTCCGGAGTCACCTAGTGCAG” was tested, and the binding signal was 10600 fluorescence intensity (a.u.).
“CTCAACCTCTCGGTCGTCGGCCTCGTCCTCCGGGCCGGCACGGAGTCACCTAGTGCAG” was tested, and the binding signal was 12000 fluorescence intensity (a.u.).
In the case of “GGCACTACCTCAAGATGCTTTGATGCAGATGTCTGTTGTCCGGAGTCACCTAGTGCAG”, the binding signal is reported as 10300 fluorescence intensity (a.u.).
With “GCTCTAGGACCAAGTCCTCGGGCGCGCGCTCGCCTTTTATCGGAGTCACCTAGTGCAG” the binding signal was 9040 fluorescence intensity (a.u.).
For “CCCAAGTCAGCCCCTCGTTTTTTTACGTCGTCCGAAAGATCGGAGTCACCTAGTGCAG”, the binding signal was 8080 fluorescence intensity (a.u.).
“CTACCCGAAGCTGTCCTTACCGGGCTTCTTGATTTGCGGACGGAGTCACCTAGTGCAG” was tested, and the binding signal was 8120 fluorescence intensity (a.u.).
In the case of “TCGTGTCAATGTGTGTTTTTTGTGGATCTTCTTGGTTTGGCGGAGTCACCTAGTGCAG”, the binding signal is reported as 10700 fluorescence intensity (a.u.).
“GATGTCATGTCTGATCCTGATTTCGACCTGCTCTACTGCACGGAGTCACCTAGTGCAG” was tested, and the binding signal was 9790 fluorescence intensity (a.u.).
“TTTTTCTCTGCGTCCTCTGCCCTCGATTGCTGGCGTTGCTCGGAGTCACCTAGTGCAG” was tested, and the binding signal was 12800 fluorescence intensity (a.u.).
“GGTGTTGTGATTTATATATTGAGAATTCGATGTTCCATCACGGAGTCACCTAGTGCAG” was tested, and the binding signal was 8180 fluorescence intensity (a.u.).
In the case of “TTTTTGTGATGTGCCTTACATGGTTGAATTAAGTCTGTTTCGGAGTCACCTAGTGCAG”, the binding signal is reported as 8580 fluorescence intensity (a.u.).
For “TTATAGCTCAGATCTTTGTCAACTCTCTCGCACGTGACGTCGGAGTCACCTAGTGCAG”, the binding signal was 8500 fluorescence intensity (a.u.).
“TATGACGTGTTTCTTATGTCTTGGTTTGTGATCACTTGTTCGGAGTCACCTAGTGCAG” was tested, and the binding signal was 11700 fluorescence intensity (a.u.).
“TTTTTCCATACGCAGGTGATTTGACAGCCTATTGCTTTTGCGGAGTCACCTAGTGCAG” was tested, and the binding signal was 8430 fluorescence intensity (a.u.).
With “CCCAAGCCGCGGCCAAGCCATTTTTCACCGTTCACCGTGGCGGAGTCACCTAGTGCAG” the binding signal was 9980 fluorescence intensity (a.u.).
For “ATTATGCATTTATTTTATTTGAAACTTTAATGCTTTTTTTCGGAGTCACCTAGTGCAG”, the binding signal was 8110 fluorescence intensity (a.u.).
With “CTCGTCTCGTTTCGTTTCGCTTCATCTCGTCATCGATGCGCGGAGTCACCTAGTGCAG” the binding signal was 9330 fluorescence intensity (a.u.).
In the case of “AAACTTATTTTAATATTCCTTATTTTTAATTTCGAATTTCCGGAGTCACCTAGTGCAG”, the binding signal is reported as 8410 fluorescence intensity (a.u.).
In the case of “CACCATTTGGATCTCATGTTCACAGTTTCATCTAGGGACACGGAGTCACCTAGTGCAG”, the binding signal is reported as 8180 fluorescence intensity (a.u.).
“ACATTTATAGCTCATCTTGTTTTGTTTATCTTCTCAATTTCGGAGTCACCTAGTGCAG” was tested, and the binding signal was 8400 fluorescence intensity (a.u.).
“GTTTTATCTATTTTTTTAGTGTGTTGGCCCAGTCATTTTTCGGAGTCACCTAGTGCAG” was tested, and the binding signal was 11200 fluorescence intensity (a.u.).
With “TAGTTTTGCATGTCTCGTATTTAATCCCGATCTTTATAAGCGGAGTCACCTAGTGCAG” the binding signal was 8150 fluorescence intensity (a.u.).
In the case of “TATGTTTGTGCTTGTGGTGCCGCGAAAAATCTTACTACTCCGGAGTCACCTAGTGCAG”, the binding signal is reported as 8290 fluorescence intensity (a.u.).
With “ATGGTGCTGATCGGTTTTTGGCGCTTGTTTTACTTTTACACGGAGTCACCTAGTGCAG” the binding signal was 11600 fluorescence intensity (a.u.).
“TCGATATCCGGCGTCTTGTCTTGATGTATGTTGGCTTGTACGGAGTCACCTAGTGCAG” was tested, and the binding signal was 8620 fluorescence intensity (a.u.).
With “GCAAATGTGAGGGCTCTTCTTTCCTTTCTTTGTGTGTTTTCGGAGTCACCTAGTGCAG” the binding signal was 9860 fluorescence intensity (a.u.).
With “ATTTTATGTCACTGACTTTCTTCCCATTCTATAATATGTCCGGAGTCACCTAGTGCAG” the binding signal was 8590 fluorescence intensity (a.u.).
“TTTTCTTTGCTTTTCGGTTTCGTTCTCCGTTTTGGTTTTTCGGAGTCACCTAGTGCAG” was tested, and the binding signal was 12400 fluorescence intensity (a.u.).
“GGTAAGGGTGGGTTTGGAGCTGTGTTCCTTGGTTACTTGGCGGAGTCACCTAGTGCAG” was tested, and the binding signal was 13500 fluorescence intensity (a.u.).
For “ACACGATATAGTCATTGCAATTATCACGGATCCAGGTCCTCGGAGTCACCTAGTGCAG”, the binding signal was 8560 fluorescence intensity (a.u.).
“CACACCACGGCCACCACCACCAACTCGATCGCACAGCAAACGGAGTCACCTAGTGCAG” was tested, and the binding signal was 8430 fluorescence intensity (a.u.).
With “CAACTCTTGGTTCGTTTTTATATGATATCACCCATCACGACGGAGTCACCTAGTGCAG” the binding signal was 9790 fluorescence intensity (a.u.).
In the case of “CATTTCTCTCGGTTCATTTGTGATGCTAACTGATACTAAGCGGAGTCACCTAGTGCAG”, the binding signal is reported as 9320 fluorescence intensity (a.u.).
For “CTTAGTTTAAAATCGTTCGATCTTGCTTTGAAGGTCTGATCGGAGTCACCTAGTGCAG”, the binding signal was 8240 fluorescence intensity (a.u.).
In the case of “AATCATCACATCATCACCGTCATCTTCTCTAGCATAGCAACGGAGTCACCTAGTGCAG”, the binding signal is reported as 8050 fluorescence intensity (a.u.).
“CTTCAAACTTTCAACTTTTCCGTCACATCGAATTTCCCTACGGAGTCACCTAGTGCAG” was tested, and the binding signal was 9020 fluorescence intensity (a.u.).
In the case of “CATCTACCCATAGTACTATATTATCATTTGTCACACTGACCGGAGTCACCTAGTGCAG”, the binding signal is reported as 10500 fluorescence intensity (a.u.).
With “ATAATCATACGCTACCCCATATCGCGGTGCAGTAATCACACGGAGTCACCTAGTGCAG” the binding signal was 8520 fluorescence intensity (a.u.).
In the case of “AAGCTTCAACCTTCCCATGCTGCAAACAGTTAATCTCAACCGGAGTCACCTAGTGCAG”, the binding signal is reported as 8400 fluorescence intensity (a.u.).
In the case of “CCGAACAATACCCGCCCGTTTCCTTGCTCGCGAATCCACTCGGAGTCACCTAGTGCAG”, the binding signal is reported as 10100 fluorescence intensity (a.u.).
